{"sequences": {"note": "The chains behind the UniProt entries cited, without tags or fusion partners. Where a name states a change or a piece, a line headed by the entry shows the natural chain unless it says otherwise.", "UniProt P55852": "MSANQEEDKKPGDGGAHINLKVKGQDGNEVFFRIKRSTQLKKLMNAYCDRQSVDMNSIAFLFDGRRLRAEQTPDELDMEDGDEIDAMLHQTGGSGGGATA"}, "source": "paper doi:10.1101/393272", "key": {"[1]": {"biological_target": "^CYFP-tagged SUMO1^ΔGG (Arabidopsis thaliana) (UniProt P55852)", "assay": "split reporter"}, "[2]": {"biological_target": "^CYFP-tagged SUMO1^GG (Arabidopsis thaliana) (UniProt P55852)", "assay": "split reporter"}}, "note": "Results are given in words; binding and its absence hold for the method and conditions named. Binding seen in cells or lysates may run through a third protein. Binding can be weak; no strength is given. Sequences can lack the tags named with a protein.", "data": [{"binder": "^NYFP-tagged SCE1 (enzyme, UniProt Q42551 1-160) MASGIARGRLAEERKSWRKNHPHGFVAKPETGQDGTVNLMVWHCTIPGKAGTDWEGGFFPLTMHFSEDYPSKPPKCKFPQGFFHPNVYPSGTVCLSILNEDYGWRPAITVKQILVGIQDLLDTPNPADPAQTDGYHLFCQDPVEYKKRVKLQSKQYPALV", "values": [{"measurement": "binding", "setting": "[1]", "value": "binds"}, {"measurement": "binding", "setting": "[2]", "value": "binds"}]}]}
